Source: PMC11891140
Positions count from the first letter of the chain named. Results are given in words; binding and its absence hold for the method and conditions named. Binding seen in cells or lysates may run through a third protein. For some assays here: Binding can be weak; no strength is given. For some assays here: Sequences can lack the tags named with a protein. Values belong to the molecule of their own block, whether it stands above or below them.

How the values were obtained:
[1] = target: T1, RAB-10(T23N) (epitope-tagged, expressed in C. elegans animals) (C. elegans) (UniProt Q94148); assay: co-IP; lysates of C. elegans animals expressing epitope-tagged proteins (Fig. 2A, 5C); immunoblot
T1 sequence: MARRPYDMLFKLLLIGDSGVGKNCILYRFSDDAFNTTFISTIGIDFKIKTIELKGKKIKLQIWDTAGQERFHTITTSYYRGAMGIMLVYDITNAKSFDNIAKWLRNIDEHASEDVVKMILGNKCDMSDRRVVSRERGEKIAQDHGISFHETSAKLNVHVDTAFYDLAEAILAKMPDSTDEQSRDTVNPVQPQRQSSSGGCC

[2] = target: T2, RAB-10(Q68L) (epitope-tagged, expressed in C. elegans animals) (C. elegans) (UniProt Q94148); assay: as above
T2 sequence: T1 sequence with N23T, Q68L

[3] = target: T3, RAB-10 used in GST pull-downs, loaded with GTPγS or GDP (C. elegans) (UniProt Q94148); assay: pull-down; GST pull-down with RAB-10 loaded with GTPγS; prey in vitro translated HA-tagged UNC-16 domains; Western blot (Fig. 2C, 7J); only the target purified
T3 sequence: T1 sequence with N23T

[4] = target: T4, EGL-8 used as bait in GST pull-downs of UNC-16 domains (C. elegans) (UniProt G5EBH0); assay: pull-down; GST pull-down between EGL-8 and UNC-16; prey in vitro translated HA-tagged UNC-16 or EGL-8 domains; Western blot (Fig. 5D, 5E, 7J); only the target purified
T4 sequence: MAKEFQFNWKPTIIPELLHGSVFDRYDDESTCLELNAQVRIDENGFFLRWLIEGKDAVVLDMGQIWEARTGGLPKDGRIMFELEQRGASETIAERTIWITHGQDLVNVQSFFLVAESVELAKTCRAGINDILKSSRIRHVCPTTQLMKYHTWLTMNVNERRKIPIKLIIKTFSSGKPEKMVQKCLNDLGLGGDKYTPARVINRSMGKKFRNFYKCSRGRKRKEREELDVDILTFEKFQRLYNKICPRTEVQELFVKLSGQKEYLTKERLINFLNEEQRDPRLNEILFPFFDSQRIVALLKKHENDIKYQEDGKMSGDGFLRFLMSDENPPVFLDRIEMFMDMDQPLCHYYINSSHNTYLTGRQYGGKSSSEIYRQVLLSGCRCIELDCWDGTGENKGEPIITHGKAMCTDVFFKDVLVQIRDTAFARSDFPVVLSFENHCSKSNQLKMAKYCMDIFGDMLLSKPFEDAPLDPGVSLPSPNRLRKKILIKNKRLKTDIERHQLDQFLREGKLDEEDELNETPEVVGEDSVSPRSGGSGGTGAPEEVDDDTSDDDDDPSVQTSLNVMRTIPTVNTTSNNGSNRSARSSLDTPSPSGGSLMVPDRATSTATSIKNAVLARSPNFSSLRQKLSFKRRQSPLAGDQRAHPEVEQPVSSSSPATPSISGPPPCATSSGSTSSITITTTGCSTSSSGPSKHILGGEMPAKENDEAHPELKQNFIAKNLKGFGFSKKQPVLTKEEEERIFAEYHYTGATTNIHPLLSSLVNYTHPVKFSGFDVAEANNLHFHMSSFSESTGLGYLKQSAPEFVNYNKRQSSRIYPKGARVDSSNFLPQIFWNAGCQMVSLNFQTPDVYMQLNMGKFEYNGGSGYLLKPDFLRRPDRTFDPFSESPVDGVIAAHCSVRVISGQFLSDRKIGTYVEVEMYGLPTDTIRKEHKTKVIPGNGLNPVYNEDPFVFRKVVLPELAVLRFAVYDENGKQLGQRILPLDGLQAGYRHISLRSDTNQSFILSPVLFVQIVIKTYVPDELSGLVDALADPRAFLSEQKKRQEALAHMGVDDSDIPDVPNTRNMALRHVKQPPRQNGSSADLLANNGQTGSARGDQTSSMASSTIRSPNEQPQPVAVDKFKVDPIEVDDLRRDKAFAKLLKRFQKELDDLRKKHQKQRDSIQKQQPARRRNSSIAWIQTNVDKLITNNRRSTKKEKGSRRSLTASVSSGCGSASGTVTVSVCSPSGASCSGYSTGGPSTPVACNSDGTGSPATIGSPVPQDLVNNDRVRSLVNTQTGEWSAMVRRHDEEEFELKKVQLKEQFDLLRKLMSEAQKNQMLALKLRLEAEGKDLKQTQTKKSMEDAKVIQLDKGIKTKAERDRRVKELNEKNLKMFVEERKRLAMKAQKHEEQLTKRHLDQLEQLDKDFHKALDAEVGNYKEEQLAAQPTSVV

[5] = target: UNC-16 (epitope-tagged, expressed in C. elegans animals) (C. elegans); assay: co-IP; lysates of C. elegans animals expressing epitope-tagged proteins (Fig. 2A, 5C); immunoblot

- binding [1]: no binding
- binding [2]: binds
Molecule: UNC-16 (epitope-tagged, expressed in C. elegans animals)

- binding [3]: binds
- binding [4]: binds
Molecule: HA-tagged UNC-16 fragment containing the LZII domain (in vitro translated) (C. elegans) (domain or fragment)

- binding [5]: binds
B1: EGL-8::mCherry (expressed in C. elegans animals) (enzyme, UniProt G5EBH0 1-1431)
chain: T4 sequence
